Results as given in patent publication US9307782B2, “Mannanase produced from Cellulosimicrobium sp. strain HY-13” (Korea Research Institute of Bioscience and Biotechnology, priority 2011, dated 2016).
Read-outs that look alike come from different tables or passages of the source.

B1: Mannanase: Wild type β-1,4-mannanase of Bacillus subtilis WY34 (protein)
chain: MRRLFAIVLGAVLALLAVPALAQGASVASDGFSVQDGRIYDANGNRFVPVGVNHAHAWYPSQTQSFADIRAAGANTVRVVLSGGRYGTSSAADVSAVVERCKQNQLVCILENHDTTGYGEDGSARSLASAAQYWTSIASVLRGQERYVMINIGNEPFGNSGFQSWTTDTIAAIRTLRAAGLDHTLVVDAPNWGQDWSFTMRDNAPTVAAADGNVVFSVHMYGVFDTGAEVRAYLDSFTSRGLPIMVGEFGDNHSDGNPDEATIMSYTRSQGIGMLGWSWSGNGGGVEYLDMVNGFSASSLTPWGQRFVHGADGLRARNAPAASVYGGDGGDGDGGAGTAPNGYPYCASASSDPDGDGWGWESSASCVVRGSSADTGSGGGSGSGSTAPNGYPYCASASSDPDGDGWGWESSASCVVRGSSADR
modifications: cellulosimicrobium
notes: Wild type β-1,4-mannanase of Bacillus subtilis WY34
B2: rManH: Recombinant GH5 β-1,4-mannanase of Cellulosimicrobium sp. HY-13 produced in E. coli; SEQ. ID. NO: 1; approximately 44 kDa (protein)
chain: B1 chain
modifications: cellulosimicrobium
notes: Recombinant GH5 β-1,4-mannanase of Cellulosimicrobium sp; HY-13 produced in E. coli; ID; NO: 1; approximately 44 kDa

Assays:
[1] = Optimum reaction temperature and pH of the mannanase; assay type: biochemical; details: maximum degrading activity with locust bean gum
[2] = comparison enzymes of other strains; cited from earlier work

Molecule	Opt. pH [1]	Opt. pH [2]	Opt. temp. [2] [°C]
B1	6.0	6.0	65
B2	6.0	–	–
